21 molecules from patent publication US20180243435A1 (AbbVie / Abbott, published 2018) can be followed below.

By UniProt entry, the sequences of proteins in these tests, tags left out. Where a name states a change or a piece, a line headed by the entry shows the natural chain unless it says otherwise.
UniProt Q9NYJ7: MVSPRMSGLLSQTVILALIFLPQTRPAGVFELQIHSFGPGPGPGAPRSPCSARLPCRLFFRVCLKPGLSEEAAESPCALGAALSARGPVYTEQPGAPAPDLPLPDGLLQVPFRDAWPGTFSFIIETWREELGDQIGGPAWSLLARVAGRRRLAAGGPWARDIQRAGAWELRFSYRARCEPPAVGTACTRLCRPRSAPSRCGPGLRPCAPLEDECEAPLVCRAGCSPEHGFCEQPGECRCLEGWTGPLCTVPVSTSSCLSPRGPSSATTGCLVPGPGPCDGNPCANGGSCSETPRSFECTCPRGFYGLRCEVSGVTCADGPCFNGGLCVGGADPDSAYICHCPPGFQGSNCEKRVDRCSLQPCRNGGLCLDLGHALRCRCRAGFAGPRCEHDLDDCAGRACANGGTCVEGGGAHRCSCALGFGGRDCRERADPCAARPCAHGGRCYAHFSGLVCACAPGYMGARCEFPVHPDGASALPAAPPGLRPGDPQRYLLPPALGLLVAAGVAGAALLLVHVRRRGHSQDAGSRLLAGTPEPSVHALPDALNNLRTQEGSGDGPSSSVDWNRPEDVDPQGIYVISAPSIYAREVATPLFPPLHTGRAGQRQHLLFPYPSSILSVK

Residue numbers refer to the chain shown, from its start. Results are given in words; binding and its absence hold for the method and conditions named. Some binding calls cover weakened binding; strength is not graded here.

The chains are these.
B1: SC16.41 (antibody, V domains shown)
VH: EVKLEESGGGLVQFGGSMKLSCAASGFTFSDAWMDWVRQSPEKGLEWVAEIRNKANNHATYYPESVKGRFTISRDDSKSRVYLQMNNLRAEDTGIYYCTGYSSFAYWGQGTLVTVSA
VL: DIQMTQTTSSLSASLGDRVTISCRASQDVINYLNWYQQKPDGTVKLLIYYTSRLHSGVPSRFSGSGSRTDYSLTISNLEPEDIATYYCQQYSERPYTFGGGTKLEIK
B2: SC16.58 (antibody, V domains shown)
VH: DVQLVESGGGLVQPGGSRKLSCAASGFTFSSFGMHWVRQAPEKGLEWVAYISSGSSNIYYADTVKGRFTISRDNPKNTLFLQMTSLRSEDTAMYYCARGYYGNYDAMDYWGQGTSVTVSS
VL: DIQMTQSPASLSSSVGETVTITCRASENIYSYLAWYQQKQGKSPQLLVYNAKTLAEGVPSRFSGSGSGTQFSLKINSLQPEDFGTYYCQHHYDSPLTFGAGTKLELR
B3: SC16.52 (antibody, V domains shown)
VH: QVQLKESGPGLVAPSQSLSITCAVSGFSLTSFAIHWFRKPPGKGLEWLGVIWTGGTTNYNSALMSRLSISKDNSKSQVFLKMNSLQTDDTAMYYCARDDYDNNYAMDYWGQGTSVTVSS
VL: DIQMIQSPSSMFASLGDRVSLSCRASQGIRGTLDWYQQKPNGTIKLLIYSTSNLNSGVPSRFSGSGSGSDYSLTISSLESEDFADYYCLQRNAYPLTFGAGTKLELK
B4: SC16.67 (antibody, V domains shown)
VH: EVQLVETGGGLVQPKGSLKLSCAVSAFTFTTYAMNWVRQAPGKGLEWVARIRNKSNNYATYYADSVKDRFTISRDDSQSMLYLQMNNLKIEDTAMYYCVFYYDYVYWGQGTLVTVSA
VL: QAVVTQESALTTSPGETVTLTCRSSTGAVTTSNYANWIQEKPDHLFTGLIGGTNNRAPGVPARFSGSLIGDKAALTITGAQTEDEAIYFCGLWYSNHLVFGGGTKLTVL
B5: SC16.72 (antibody, V domains shown)
VH: EVQLQQSGPELVKPGASVKMSCKASGYTFTSYVMHWVKQKPGQGLEWIGYINPYNDGTKYNEKFKGKATLTSDKSSSTAYMELSSLTSEDSAVYYCARLRSRAMDYWGQGTSVTVSS
VL: ENVLTQSPAIMSASLGEKVTMSCRASSSVNYMSWYQQKSDASPKLWIYYTSNLAPGVPARFSGSGSGNSYSLTISSMEGEDAATYYCQQFTSSPYTFGGGTKLEIK
B6: SC16.42 (antibody, V domains shown)
VH: QIQLVQSGPELKKPGETVKISCKASGYTFTTAGMQWVQKMPGKGFKWIGWINTHSGEPKYADDFKGRFAFSLETSASTAYLQISNLKDEDTATFFCAPLWSDSSFAYWGQGTLVTVSA
VL: DVLMTQSPLSLSVSLGDQASISCRSSQNIVHSDRYTYLEWYLQKPGQSPKLLIYGVSNRFSGVPDRFSGSGSGTDFTLKISRVEAEDMGVYYCFQGTHVPYTFGGGTKLEIK
B7: SC16.45 (antibody, V domains shown)
VH: QVQLQQSGADLVRPGTSVKVSCKASGYSFTNYLIEWVKQRPGQGLEWIGVINPGSGGTHYNEKFKDKAVLTADKSSTTAHMQLSSLTSDDSAVYFCARSPYDYNDGAMDYWGQGTSVTVSS
VL: EIQMTQSPSSMSASLGDRITITCQATQDIVKNLNWYQQKPGKPPSFLIYYATELAEGVPARFSGSGSGSDYSLTISNLESEDFADYHCLQFYEFPFTFGAGTKLELK
B8: SC16.49 (antibody, V domains shown)
VH: QVQLQQSGPELVKPGTLVKISCKASGYTFTSYDINWVKQRPGQGLEWIGWIYPGDGNTKYSEKFKGKATLTADKSSSTAYMQLTSLTSENSAVYFCARDYDYPFAYWGQGTLVTVSA
VL: DIKMTQSPSSMYASLGERVTITCKASQDINSYLSWFQQKPGKSPKTLIYRANRLVDGVPSRFSGSGSGQDYSLTITSLEYEDMGIYYCLQYDEFPLTFGAGTKLELK
B9: SC16.55 (antibody, V domains shown)
VH: B4 VH with T7S
VL: B8 VL with S34N, T76S, L96Y, A100G, L106I
B10: SC16.78 (antibody, V domains shown)
VH: EVKLVESGGGLVKPGGSLKLSCAASGFTFGRYVMSWVRQTPEKKLEWVASITSGGTTYYPDSVKGRFTISRDNARNILYLQMSSLRSEDTAMYYCARVYYHYDDIFAYWGQGTLVTVSA
VL: B8 VL with K42R, T76S, E79D, L96F, A100S, L106I
B11: SC16.62 (antibody, V domains shown)
VH: EVMLVESGGDLVKPGGSLKLSCAASGFTFSSYAMSWVRQTPEKRLEWVAYISGGGDHIYYPDSVRGRFTISRDNAKDTLYLQMSSLRSEDTALYDCARVRDWYFDVWGAGTTVTVSS
VL: B8 VL with Y32F, Q38R, S63T, D70E, Y71F, T76S, M83L, L96Y, A100G, L106I
B12: SC16.73 (antibody, V domains shown)
VH: QVQLQQSGAELMKPGASVKISCKANGYTFSSYWIEWLRQRPGHGLEWIGEILPGSDNSNYNEKFKGKATFTADTSSNTAYMQLSSLTSEESAVYYCTRGLRRDGSYYYVMEHWGQGTSVTVSS
VL: DIQMTQSPSSLSASLGERVSLTCRASQDIGYSLNWLQQEPDGTIKRLIYATSSLDSGVPKRFSGSRSGSDYSLTISSLESEDFVDYYCLQYASSPWTFGGGTKLEIK
B13: SC16.80 (antibody, V domains shown)
VH: EVQLQQSGPELVKPGGSKKISCKASGYSFTGYSMNWVKQSHGKNLEWIGLINPYSGGTIYNQKFKGKATLTVDKSSSTAYMELLSLTSEDSAVYYCARRSDYPLVYWGQGTLVTVSA
VL: ETTVTQSPASLSMAIGEKVTIRCITSTDIDDDMIWYQQKPGEPPKLLISEGNTLRPGVPSRFSSSGYGTDFVFTIENMLSEDVADYYCLKRDDLPYTFGGGTQVEIK
B14: SC16.79 (antibody, V domains shown)
VH: EVQLQQSGPELVKPGASVKISCKTSGYTFTEYTMHWVKQSHGKSLEWIGGINPNNGGTSYNQKFKGKATLTVDKSSSTAYMELRSLTSEDSAVYYCARGPAWFAYWGQGTLVTVSA
VL: DIVMSQSPSSLAVSAGEKVTMSCKSSQSLLNSRTRKNYLAWYQQKPGQSPKLLIYWASTRESGVPDRFTGSGSGTDFTLTISSVQAEDLAVYYCKQSYNLYTFGGGTKLKIK
B15: SC16.56 (antibody, V domains shown)
VH: QIQLVQSGPELKKPGETVKISCKASGYTFTNYGMNWVKQAPGKGLKWMAWINTYTGEPTYADDFKGRFAFSLETSASTASLQIINLKNEDTATYFCARIGDSSPSDYWGQGTTLTVSS
VL: SIVMTQTPKFLLVSAGDRVTITCKASQSVSNDVVWYQQKPGQSPKLLIYYASNRYTGVPDRFAGSGYGTDFSFTISTVQAEDLAVYFCQQDYTSPWTFGGGTKLEIR
notes: murine hybridoma mAb
B16: SC16.65 (antibody, V domains shown)
VH: QVTLKESGPGILQPSQTLSLTCSFSGFSLSTSGMGVGWIRQPSGKGLEWLALIWWDDVKRYNPALKSRLTISKDASSSQVFLKIASVDTADTATYYCARIASYDYDVVYAMDYWGQGTSVSVSS
VL: QIVLTQSPALMSASPGEKVTMTCSVTSSVSYMYWYQQKPRSSPKPWIYLTSNLASGVPARFSGSGSGTSYSLTISSVEAEDAATYYCQQWRNNPFTFGSGTKVEIK
notes: murine hybridoma mAb
B17: SC16.47 (antibody, V domains shown)
VH: EVQLQQSGPELVKPGASVKISCKASGYSFSRFYMHWVKQSPENSLEWIGEINPSTGGTSYNQKFKGKATLTVDKSSSTAYMQLKSLTSEESAVYYCTRGYGSNCYFDVWGAGTTVTVST
VL: DVVLTQSPLSLPVNIGDQASISCKSTKSLLNSDGFTYLDWYLQRPGQSPQFLIYLVSNRFSGVPDRFSGSGSGTDFTLKISRVEAEDLGVYYCFQSNYLPLTFGAGTKLELR
B18: SC16.5 (antibody, V domains shown)
VH: QVTLKESGPGILQPSQTLSLTCSFSGFSLSTSGMGVGWIRQPSGEGLEWLADIWWDDNKYYNPSLKSRLTISKDTSSNQVFLKITSVDTADTATYYCARRVNYVYDPYYAMDYWGQGTSVTVSS
VL: QIVLTQSPAIMSASPGEKVTMTCSASSSVSYMHWYQQKSGTSPKRWIYDTSKLASGVPARFSGSGSGTSYSLTISSMEAEDAATYYCQQWTRNPLTFGAGTKLELK
B19: SC16.63 (antibody, V domains shown)
VH: QVQLQQSGTELLRPGASVKISCKATGYTFSSYWMEWVKQRPGHGLEWIGEILPGSGTTQYNEKFKGKATFTADTSSNTAYMHLSSLTSEDSAVYYCARGTNSLWGQGTLVTVSA
VL: B18 VL with H33Y, T91S, R92S, L95Y, A99G, L105I
B20: SC16.57 (antibody, V domains shown)
VH: EVKLVESGGDLVKPGGSLKLSCAASGFAFSSYDMSWVRQTPEKRLEWVATISSGGSYTYYPDSVKGRFTISRDNVRDTLYLQMSSLRSEDTALYYCARQAIGTYFDYWGQGTTLTVSS
VL: DIVMTQSHKFMSISVGDRVSITCKASQDVSIFVAWYQQKPGQSPKLLIYSASYRYTGVPDRFTGSGSGTDFIFTISSVQAEDLAVYYCQQHYGTPFTFGSGTKLKIR
B21: SC16.61 (antibody, V domains shown)
VH: EVLLQRSGPDLVKPGASVTIPCKASGYTFTDYNMDWVKQSHGKSLEWIGNINTYNGGTIYNQKFKGKATLTVDKPSSTAYMELRSLTSEDTAVYYCARRLRYGGHYFDYWGQGTALTVSS
VL: DIVMTQSTSSLAMSVGQKVTMSCKSSQSLLNSSNQKNYLAWYQQEPGQSPKLLVSFASTRESGVPDRFTGSGSGTDFTLTISGVQAEDLAVYYCQQHYSIPLTFGAGTKLELK

The target of this experiment is human DLL3 (human) (UniProt Q9NYJ7). Nature of the experiment: hybridoma screening: ELISA on immobilized DLL3 or flow cytometry on HEK-293T cells overexpressing hDLL3.
Consider B1, for which the binding entry is “binds”.
B2: the binding entry was “binds”.
Turning to B3, the binding result is reported as “binds”.
The entry for B4 is “binds”; for B5 it is “binds”; for B6 it is “binds”.
The entry for B7 is “binds”; for B8 it is “binds”.
In the case of B9, the binding entry is recorded as “binds”.
Take B10: the binding result is “binds”.
As to B11, the binding entry was “binds”.
As for B12, the binding result was “binds”.
As to B13, the binding result was “binds”.
With B14, the binding result is “binds”.
The entry for B15 is “binds”; for B16 it is “binds”; for B17 it is “binds”.
Turning to B18, the binding entry is “binds”.
B19: the binding entry is “binds”.
As for B20, the binding result is “binds”.
As for B21, the binding result is reported as “binds”.
